The target in this experiment is T1, 2×HA-3×Flag-Eya1 (constitutively expressed in HEK293 cells) (UniProt P97767).
T1 sequence: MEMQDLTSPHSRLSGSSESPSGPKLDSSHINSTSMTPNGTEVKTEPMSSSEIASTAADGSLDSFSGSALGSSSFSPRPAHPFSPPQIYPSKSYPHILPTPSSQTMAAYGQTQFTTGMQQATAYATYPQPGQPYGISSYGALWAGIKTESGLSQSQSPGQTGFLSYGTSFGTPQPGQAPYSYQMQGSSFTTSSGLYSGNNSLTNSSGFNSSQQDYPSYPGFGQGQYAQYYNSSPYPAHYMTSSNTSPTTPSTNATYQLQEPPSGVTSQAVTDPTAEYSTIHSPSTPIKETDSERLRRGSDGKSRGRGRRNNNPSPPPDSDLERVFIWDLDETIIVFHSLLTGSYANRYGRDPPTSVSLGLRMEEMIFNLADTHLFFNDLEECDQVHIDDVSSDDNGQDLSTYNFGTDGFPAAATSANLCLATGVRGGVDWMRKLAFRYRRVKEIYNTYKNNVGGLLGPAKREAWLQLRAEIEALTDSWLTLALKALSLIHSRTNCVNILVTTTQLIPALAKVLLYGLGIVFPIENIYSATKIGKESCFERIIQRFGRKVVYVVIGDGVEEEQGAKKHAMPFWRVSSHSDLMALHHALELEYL
Kind of experiment: affinity purification with mass spectrometry.

These are yes or no findings as the source states them, for the method shown. Binding seen in cells or lysates may run through a third protein. These calls come from enrichment with a bait or labelling near it, and not all partners need be listed. Tags and fused reporters may be left off the sequences shown.

Consider “BAF60b (HEK293 cells) (from UniProt Q92925 1-531)”, for which the binding result was “binds”.
The same measure for “BAF155 (HEK293 cells) (from UniProt Q92922 1-1105)”: “binds”; for “BAF170 (HEK293 cells) (from UniProt Q8TAQ2 1-1214)”: “binds”.
